# Assay results as given in US20130245355A1, “3-HETARYL-SUBSTITUTED PYRROLO[2,3 B]PYRIDINE DERIVATIVES AS PDK1 INHIBITORS” (MERCK PATENT GMBH, priority 2010, published 2013).
# By UniProt entry, the sequences of proteins in these tests, tags left out. Residues count along the entry.
# UniProt O15530, whole entry: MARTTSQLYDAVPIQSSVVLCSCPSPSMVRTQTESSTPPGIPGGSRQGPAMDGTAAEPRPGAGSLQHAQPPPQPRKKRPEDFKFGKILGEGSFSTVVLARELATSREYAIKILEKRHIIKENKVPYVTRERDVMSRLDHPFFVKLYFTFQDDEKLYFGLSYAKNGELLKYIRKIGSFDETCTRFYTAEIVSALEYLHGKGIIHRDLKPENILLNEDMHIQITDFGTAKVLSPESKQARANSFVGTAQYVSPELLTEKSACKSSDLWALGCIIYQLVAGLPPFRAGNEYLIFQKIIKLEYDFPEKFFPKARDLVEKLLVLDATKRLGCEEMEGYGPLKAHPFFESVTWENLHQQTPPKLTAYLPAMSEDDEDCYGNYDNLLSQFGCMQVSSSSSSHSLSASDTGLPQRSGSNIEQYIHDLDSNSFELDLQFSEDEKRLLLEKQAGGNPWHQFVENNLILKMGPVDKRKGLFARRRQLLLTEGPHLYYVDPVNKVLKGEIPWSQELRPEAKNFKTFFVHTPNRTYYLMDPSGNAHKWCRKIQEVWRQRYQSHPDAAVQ
# UniProt O15530, 51-556 limits assumed: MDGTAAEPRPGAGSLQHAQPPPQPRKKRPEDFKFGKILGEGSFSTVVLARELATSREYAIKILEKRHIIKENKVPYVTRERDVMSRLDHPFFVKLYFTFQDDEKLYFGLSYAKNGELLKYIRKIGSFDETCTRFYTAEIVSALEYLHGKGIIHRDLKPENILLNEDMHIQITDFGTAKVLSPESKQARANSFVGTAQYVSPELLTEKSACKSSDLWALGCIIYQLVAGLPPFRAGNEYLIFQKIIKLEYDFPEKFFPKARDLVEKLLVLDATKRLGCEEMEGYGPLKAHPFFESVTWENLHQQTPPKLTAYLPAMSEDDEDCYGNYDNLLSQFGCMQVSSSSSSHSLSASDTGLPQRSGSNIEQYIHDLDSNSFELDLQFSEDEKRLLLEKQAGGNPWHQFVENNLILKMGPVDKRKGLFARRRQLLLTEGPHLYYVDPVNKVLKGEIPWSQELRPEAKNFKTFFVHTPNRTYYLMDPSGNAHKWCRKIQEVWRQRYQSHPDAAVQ
# The structures given here were assigned with low confidence; some may be wrong.
# Columns and labels:
# PDK1 [1] = molecular target: T1, PDK1 (Homo sapiens, UniProt O15530); test: Test for the inhibition of PDK1 (flashplate, 33P-ATP); conditions: read-out: IC50 [PDK1] biochemical; His6-PDK1 (1-50) 3.4 nM, 4 μM ATP, 30° C., 60 min
# Experimental: The experimental batches are carried out in a flashplate system with 384 wells/microtitration plate.
# In each case, the PDK1 sample His6-PDK1 (1-50) (3.4 nM), the PDK1 substrate biotin-bA-bA-[…] (400 nM), 4 μM ATP (with 0.2μ Ci of ^33P-ATP/well) and the test substance in 50 μl of conventional experimental solution per well are incubated at 30° C. for 60 min. The test substances are employed in corresponding concentrations (if desired in a dilution series). The control is carried out without test substance. The reaction is stopped using standard methods and washed. The activity of the kinase is measured via the incorporated radioactivity in top count. In order to determine the non-specific kinase reaction (blank value), the experimental batches are carried out in the presence of 100 nM staurosporin.
# The radioactivity (decompositions per minute) of the blank value (no use of test substance in the presence of staurosporin) is subtracted from all other radioactivity values. The controls (kinase activity without test substance) are set equal to 100 percent and all other radioactivity values (after subtracting the blank value) are expressed set in relation thereto (for example in % of the control).
# IC50 values (50% inhibition) are determined with the aid of statistics programmes, such as, for example, RS1.
# PDK1 [2] = molecular target: T1, PDK1; test: Cellular testing of PDK1 kinase inhibitors in PC3 cells (Luminex, phospho-T308-PKB); conditions: read-out: IC50 [PDK1] cellular, 30 min, serum-free
# Experimental: Method for the Cellular Testing of PDK1 Kinase Inhibitors in PC3 Cells.
# The cellular assay for the determination of the PDK1 kinase activity is carried out as a Luminex assay in the 96-well format. PC3 cells are sown at 20,000 cells per well in 100 μl of medium (45% of […]/45% of Ham's F12/10% of FCS) and incubated on the following day for 30 min with a serial dilution of the test substance (7 concentrations) under serum-free conditions. The cells are subsequently lysed using 90 μl of lysis buffer (20 mM tris/HCl pH 8.0, 150 mM NaCl, 1% of NP40, 10% of glycerol, 1% of phosphatase inhibitor I, 1% of phosphatase inhibitor II, 0.1% of protease inhibitor cocktail III, 0.01% of benzonase) per well, and the lysates are separated off from insoluble cell constituents by means of centrifugation through a 96-well filter plate (0.65 μm). The lysates are incubated overnight at 4° C. with shaking with Luminex beads to which an anti-total PKB antibody is coupled. The detection is carried out on the following day by addition of a phospho-T308-PKB antibody and a species-specific peroxidase-labelled secondary antibody. […] The values of the batches treated with test substance are calculated therefrom as percentage of control, and IC50 values are determined by means of RS 1.
compound,measurement,setting,value
Cn1cc(-c2cnc3[nH]cc(-c4nc(C(C)(O)c5ccccc5F)no4)c3c2)cn1 (centres unmarked),IC50,PDK1 [1],0.5 to 1000 nM
same,IC50,PDK1 [2],1000 to 10000 nM
